PubChem BioAssay AID1259308 | NCATS, 2017
Assay: 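Candidate targets for better recombinant protein yield in mammalian cells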 (primary screen). System: human HEK293 embryonic kidney cells stably expressing firefly luciferase (HEK-CMV-Luc2-Hygro). Knock-down reagent: single siRNA against human genes, 0.8 pmol siRNA per well. Time to read-out: 72 h. Measurement: 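Luciferase light (ONE-Glo) measured on one replicate plate set and viability (CellTiter-Glo) on the other, scaled to a negative control siRNA, with robust z-scores and luciferase per cell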. Direction: total luciferase, z-score: higher = more reporter protein produced. Rule for the call: 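Active when the median/MAD z-score for overall luciferase is greater than 3; a gene was taken forward for validation with new siRNAs if at least two of its three siRNAs passed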. Calls: active = raised luciferase; inactive = no rise.
This is one part, drawn at random, of about 59,000 deposited reagents. About 1,510 of them (2.6%) count as active. 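Calls use total luciferase alone and ignore viability, so some active siRNAs may act by altering cell number.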 The numbers tell different reagents against one gene apart. Not all columns of the deposit are shown.

KYAT1 (kynurenine aminotransferase 1) #1: total luciferase, z-score = 2.54; Call = inactive
KYAT1 (kynurenine aminotransferase 1) #2: total luciferase, z-score = -0.325; Call = inactive
KYAT1 (kynurenine aminotransferase 1) #3: total luciferase, z-score = 1.04; Call = inactive
SPDYE10 (speedy/RINGO cell cycle regulator family member E10) #1: total luciferase, z-score = 0.449; Call = inactive
SPDYE10 (speedy/RINGO cell cycle regulator family member E10) #2: total luciferase, z-score = 1.52; Call = inactive
SPDYE10 (speedy/RINGO cell cycle regulator family member E10) #3: total luciferase, z-score = -0.0222; Call = inactive
USP2 (ubiquitin specific peptidase 2) #1: total luciferase, z-score = -0.333; Call = inactive
USP2 (ubiquitin specific peptidase 2) #2: total luciferase, z-score = 2.59; Call = inactive
USP2 (ubiquitin specific peptidase 2) #3: total luciferase, z-score = 0.422; Call = inactive
IP6K3 (inositol hexakisphosphate kinase 3) #1: total luciferase, z-score = 0.356; Call = inactive
IP6K3 (inositol hexakisphosphate kinase 3) #2: total luciferase, z-score = -1.5; Call = inactive
IP6K3 (inositol hexakisphosphate kinase 3) #3: total luciferase, z-score = -1.23; Call = inactive
